{"sequences": {"note": "By UniProt entry, the sequences of proteins in these tests, tags left out. Where a name states a change or a piece, a line headed by the entry shows the natural chain unless it says otherwise.", "UniProt Q7A3E2": "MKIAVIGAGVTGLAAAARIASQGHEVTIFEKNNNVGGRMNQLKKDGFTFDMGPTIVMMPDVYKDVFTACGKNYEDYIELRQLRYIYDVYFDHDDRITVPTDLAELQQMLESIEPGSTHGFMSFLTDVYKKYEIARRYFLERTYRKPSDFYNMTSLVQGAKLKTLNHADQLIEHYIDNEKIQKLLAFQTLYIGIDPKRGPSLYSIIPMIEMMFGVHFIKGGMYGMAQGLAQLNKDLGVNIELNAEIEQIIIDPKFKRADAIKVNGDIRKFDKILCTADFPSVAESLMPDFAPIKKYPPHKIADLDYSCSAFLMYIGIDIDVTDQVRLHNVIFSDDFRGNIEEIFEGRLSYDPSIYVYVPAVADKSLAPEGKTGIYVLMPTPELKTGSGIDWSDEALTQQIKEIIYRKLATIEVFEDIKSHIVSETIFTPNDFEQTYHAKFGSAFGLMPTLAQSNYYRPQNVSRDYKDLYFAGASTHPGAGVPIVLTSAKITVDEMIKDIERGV"}, "source": "patent US11446280B2", "about": "“Compounds and methods for the treatment of microbial infections” (Versitech Limited, priority 2017, dated 2022)", "key": {"[1]": {"molecular_target": "4,4-diapophytoene desaturase (CrtN) (Staphylococcus aureus, UniProt Q7A3E2)", "experiment": "CrtN enzymatic assay", "type": "biochemical, S. aureus", "set-up": "His (cleaved yes); MBP (cleaved yes); made in house; host or cells: E. coli Rosetta (DE3)"}, "[2]": {"test_system": "S. aureus pigment formation (staphyloxanthin production)", "experiment": "In vitro pigment inhibition / staphyloxanthin production in S. aureus", "type": "cell-based, Staphylococcus aureus", "conditions": "S. aureus grown in the presence of compound", "experimental": "S. aureus was propagated in Brain Heart Infusion broth (BHI) or on BHI agar (Oxoid). The in vitro pigment inhibition studies were performed by S. aureus USA300 cultured in BHI with or without the presence of inhibitor compounds at 37° C. and 250 rpm for 36-48 hours. The bacteria were washed twice with PBS prior to the staphyloxanthin purification with methanol. The OD of the extracts were monitor at 450 nm using DTX880 multi-plate reader spectrophotometer (Beckman). The concentration range tested for the compounds were between 300 nM to 700 nM, and control groups were added with equal volume of DMSO.\nThe IC50 values were obtained by fitting the inhibition data to a normal dose-response curve in SigmaPlot (CA).\nThe cytotoxicity of NP-16 and some of it analogues was tested against Raw 264.7 cells, and the cell tolerance of each compounds were documented in Table 3. Along with the in vitro staphyloxanthin production of the NP-16 analogues were being tested, the compounds can exert staphyloxanthin production inhibition. The staphyloxanthin from the overnight-cultured bacteria were extracted with methanol and quantified in via spectrophotometry. The results were presented in relative ratio to NP-16 in both the inhibition ratio as well as the TC50 in Table 3 (compound/analogue numbers correspond to those listed in Table 1)."}, "S. aureus": {"test_system": "S. aureus", "experiment": "Hydrogen peroxide susceptibility assay", "type": "cell-based, Staphylococcus aureus"}}, "note": "At least one structure is not confirmed: it was looked up by name or label, or the drawing left a doubt."}
{"smiles": "O=C(/C=C/c1ccccc1)Nc1ccc(S(=O)(=O)N2CCCC2)cc1", "note": "[Compound 1, 3-phenyl-N-[4-(1-pyrrolidinylsulfonyl)phenyl]acryl-amide]", "values": [{"measurement": "Inhibition of CrtN", "setting": "[1]", "result": "inhibitor for CrtN"}, {"measurement": "Pigment (staphyloxanthin) production", "setting": "[2]", "result": "decrease in pigment production"}, {"measurement": "Susceptibility to killing by hydrogen peroxide", "setting": "S. aureus; S. aureus COL grown with NP16 40 μM, 440 mM H2O2, 1 hr", "result": "increased susceptibility"}, {"measurement": "Susceptibility to killing by hydrogen peroxide", "setting": "S. aureus; non-pigmented strain RN6390, with vs without NP16", "result": "similar"}]}
